# PubChem BioAssay AID1439 (NMMLSC, 2008)
# Chains of the proteins cited; added tags and fusions are not shown.
# UniProt P09471, whole entry, looked up: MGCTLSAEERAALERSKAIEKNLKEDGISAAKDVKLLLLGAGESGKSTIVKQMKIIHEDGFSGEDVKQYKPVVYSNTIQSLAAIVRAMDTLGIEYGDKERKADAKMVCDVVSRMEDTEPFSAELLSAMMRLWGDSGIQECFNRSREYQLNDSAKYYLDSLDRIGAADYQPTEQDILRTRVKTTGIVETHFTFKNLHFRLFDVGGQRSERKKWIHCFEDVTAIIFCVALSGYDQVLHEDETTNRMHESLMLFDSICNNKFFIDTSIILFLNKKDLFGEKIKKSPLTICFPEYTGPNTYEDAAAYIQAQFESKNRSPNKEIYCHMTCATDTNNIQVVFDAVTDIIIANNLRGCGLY
# The whole screen tested about 220,000 compounds, of which about 770 (0.35%) were called active. Inconclusive means that the source gave no clear call. Such entries were picked first, then a sample of the others. Rule as the data show it: active = binding response below about 49% or above about 150%; inconclusive = no clear call, values can overlap the other calls; inactive = in between.
# Molecular target: Guanine nucleotide-binding protein G(o) subunit alpha (Homo sapiens) (UniProt P09471)
# Assay: RGS7-Galphao binding modulators, primary screen, biochemical, multiplexed bead flow cytometry (AID 1439);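 also: fluorescent Galphao held in activated GDP-AlF4 state binding bead-coupled RGS7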
# Settings: at 10 µM, actives lie on both sides
row,SMILES,binding response (% of control)
1,O=C(CNC(=O)c1ccncc1)N/N=C/c1cc(Br)ccc1OCc1ccccc1,inconclusive: 310%
2,CCc1nc(NC(C)(C)C)c2cnn(-c3ccccc3)c2n1,inconclusive: 104%
3,O=C(Nc1cccc(S(=O)(=O)N2CCOCC2)c1)c1cnccn1,inconclusive: 92.2%
4,COc1ccc(C(=O)C[n+]2ccc3c(c2)nc(-c2cc(OC)c(OC)cc2OC)n3C)cc1,inactive: 67.7%
5,Cc1nn(CCOc2ccccc2)c(=O)n1-c1ccc(Cl)cc1,inconclusive: 111%
6,Cc1sc2c(c1C)C(O)=C(C(=O)Nc1ccccc1)S(=O)(=O)N2C,inconclusive: 164%
7,Oc1ccccc1-c1cc(C(F)(F)F)[nH]n1,inconclusive: 76%
8,COC(=O)C1=C(C(=O)OC)[C@@H]2N(Cc3ccccc3)c3ccccc3[C@@]23C[C@@H](C(=O)OC)N(C(=O)COCc2ccccc2)C3=N1,inconclusive: 92.3%
9,COc1cccc(N=Cc2nc(-c3ccccc3)oc2OC(C)=O)c1,inconclusive: 178%
10,CC1CCN(C(=O)c2[nH]cnc2C(=O)N[C@@H](CCCCNC(=O)OC(C)(C)C)C(=O)OC(C)(C)C)CC1,inconclusive: 99.7%
11,COc1ccccc1CC(=O)NCc1nn(-c2ccccc2)nc1C,inconclusive: 82.1%
12,O=C1c2ccccc2NC(c2ccccc2Cl)N1N=C1CCCCCC1 (centres undefined),inactive: 102%
13,Cc1onc(-c2c(F)cccc2Cl)c1C(=O)NCCN1CCNC1=O,inconclusive: 122%
14,Cc1ccc(S(=O)(=O)Nc2n[nH]nc2C(=O)NC2CCCCC2)cc1,inactive: 101%
15,COc1ccccc1OCCOc1ccc(C(=O)c2ccccc2)cc1,inactive: 97.6%
16,O=C1Nc2ccccc2N(O)N1c1ccc(S(=O)(=O)Nc2ccccn2)cc1,inactive: 128%
17,C=CCS/C(N)=N\N=C\c1c(O)ccc2ccccc12,inconclusive: 111%
18,O=C(Cc1cccs1)Nc1cccc([N+](=O)[O-])c1,inconclusive: 66.2%
19,FC(F)(F)c1cc(CCN2C(=S)NC[C@@H]2c2ccccc2)cc(C(F)(F)F)c1,inconclusive: 91.7%
20,Cc1ccc(-c2csc3nc(CN(C)Cc4ccccc4)[nH]c(=O)c23)cc1,inconclusive: 89.5%
21,Cc1ccc(C(=O)C(OC(=O)CCC(=O)Nc2cccc(C)c2)c2ccccc2)cc1 (centres undefined),inactive: 98.4%
22,Cc1cnn(C(=O)c2cc(-c3ccccn3)nc3ccc(Cl)cc23)c1,inconclusive: 80.1%
23,CCCCCCSc1nnc(N)s1,inconclusive: 139%

row,SMILES,binding response (% of control)
1,CCCc1c(NC(=O)Nc2ccc(F)cc2)cnn1-c1ccccc1,inconclusive: -53.3%
2,Cc1[nH]c2ccccc2c1/C=N/NC(=S)NC(C)C,active: 176% [activator]
3,C=CCn1c(=NC(=O)c2ccccc2[N+](=O)[O-])sc2cc(S(C)(=O)=O)ccc21,inactive: 99.7%
4,COc1cccc(-n2c(SCc3cc(=O)oc4cc(O)c(O)cc34)nc3ccccc3c2=O)c1,inactive: 98.5%
5,O=C1C(=O)N(c2ccc(O)cc2)C(c2ccccc2[N+](=O)[O-])/C1=C(\O)c1ccccc1 (centres undefined),inconclusive: 118%
6,Nc1nnc(CC(=O)N/N=C/c2ccc(-c3ccc(Cl)cc3Cl)o2)s1,inconclusive: 51.5%
7,CC(C)(C)c1ccc(-n2nc(C#N)c(Cl)cc2=O)cc1,inconclusive: 105%
8,CCCc1nc(-c2cc3ccccc3[nH]c2=O)no1,inconclusive: 85.5%
9,CC1COC(=O)C(NNc2ccc(Cl)c(Cl)c2)=N1 (centres undefined),inconclusive: 82.5%
10,O=C1CCC(C(=O)Nc2ccccc2N2CCOCC2)=NN1,inconclusive: 89.7%
11,CCOc1ccc(-c2nnc3ccc(SC(C)C)nn23)cc1,inactive: 107%
12,O=C(O)COc1ccccc1/C=N/NC(=O)c1cc(-c2ccc(F)cc2)nc2ccccc12,inconclusive: 89.7%
13,Cc1cc(C)c(NC(=S)N(C)C)cc1C,inconclusive: 160%
14,Cc1ccc(C)c(S(=O)(=O)N2CCCOC2CNC(=O)C(=O)NCc2ccncc2)c1 (centres undefined),inactive: 101%
15,CC(=O)Nc1cccc(OCCCNC(=O)c2cccc3ccccc23)c1,inconclusive: 109%
16,CCc1nnc(NC(=O)CSc2nc(-c3ccccc3)cc(-c3ccc(OC)cc3)c2C#N)s1,inactive: 101%
17,Cc1cccc(NC(=S)NCc2ccc3c(c2)cc(C)n3C)c1C,inconclusive: 113%
18,CSc1nc2ccsc2c(=O)n1-c1cccnc1,inconclusive: 81.9%
19,Cc1ccc(S(=O)(=O)N2CCCCC2)cc1C(=O)Nc1ccc(S(=O)(=O)Nc2ncccn2)cc1,inconclusive: 35.4%
20,Cc1cc(C)c2oc(C(=O)N(Cc3ccccc3)C3CCS(=O)(=O)C3)cc(=O)c2c1 (centres undefined),inconclusive: 98.5%
21,O=C(NNS(=O)(=O)c1ccccc1C(F)(F)F)c1cc2ncc(C(F)(F)F)cc2s1,inconclusive: 32.8%
22,c1ccc2c(c1)CC1(CCCC1)N=C2N1CCOCC1,inconclusive: 97.5%
23,Cc1cc(C)c(S(=O)(=O)Nc2cccc(S(=O)(=O)NC3=NCCC3)c2)c(C)c1,inactive: 101%

row,SMILES,binding response (% of control)
1,O=C(N=Nc1c(O)n(C2OC(=O)c3ccccc32)c2ccccc12)c1ccco1 (centres undefined),inconclusive: -2.35%
2,CCOc1ccc2[nH]cc(S(=O)(=O)c3ccc(C)cc3)c(=O)c2c1,inconclusive: 99.3%
3,Cc1ccc(C)c(NC(=S)N(CCN(C)C)C(C)c2ccccn2)c1 (centres undefined),inactive: 105%
4,Cc1cc(C)n(C(=O)COc2ccccc2[N+](=O)[O-])n1,inconclusive: 187%
5,COc1cccc(NC(=S)N2CCn3cccc3C2c2cccnc2)c1 (centres undefined),inconclusive: 86.6%
6,CC(C)c1ccccc1NC1=CC(=O)CC(C)(C)C1,inactive: 95.7%
7,COc1ccc(CNC(=S)N/N=C(\C)c2ccc(OC)cc2)cc1,inconclusive: 92.9%
8,CCN1C(=O)N(S(=O)(=O)c2ccc(C)cc2)[C@@H](c2ccccc2)C(C(=O)OC)=C1C,inconclusive: 98%
9,O=C(CSc1nnc(Cc2ccccc2)o1)c1ccc(F)cc1,inconclusive: 170%
10,CN(C)CCOC(=O)c1ccc2[nH]c3c(c2c1)CSCC3,inconclusive: 89.1%
11,Cc1cc(CNC(=O)c2ccc3c(c2)OCO3)c2ccccc2n1,inactive: 92.3%
12,CC(=O)c1ccc2c(c1)OCCOCCOCCO2,inconclusive: 81.9%
13,CN(CCO)S(=O)(=O)c1ccc2c(c1)C(=NNC(N)=O)c1cc(S(=O)(=O)N(C)CCO)ccc1-2,inconclusive: 121%
14,Cc1ccc(N2C(=O)N(C(C)C)C(C)(C)CC2(C)O)cc1 (centres undefined),inconclusive: 95.6%
15,CC(c1ccc(F)cc1)n1c(-c2cccs2)n[nH]c1=S (centres undefined),inconclusive: 102%
16,CC(=O)Nc1cccc(-c2nnc(-c3ccccc3)o2)c1,inactive: 90.5%
17,Cc1nnsc1C(=O)NCc1c(F)cccc1Cl,inconclusive: 103%
18,COc1cc(/C=C2/C(=O)N(c3ccc([N+](=O)[O-])cc3)N=C2N2CCOCC2)ccc1O,inconclusive: -221%
19,Cc1cccc(OCC(=O)N/N=C/c2cccn2C)c1,inconclusive: 100%
20,Cc1ccc(-c2csc(NC(=O)CSc3nnc4c(n3)[nH]c3ccccc34)n2)cc1,inactive: 91.6%
21,CCN(CC)Cc1ccc(OC)c(Cl)c1,inconclusive: 88.3%
22,Cc1cc(C)c(C#N)c(SCc2c(F)cccc2[N+](=O)[O-])n1,inactive: 102%
23,NC(=O)CC(NC(=O)Cc1cccc2ccccc12)c1ccc(NC2CCCCC2)c([N+](=O)[O-])c1 (centres undefined),inconclusive: 115%

row,SMILES,binding response (% of control)
1,Cc1cc(/C=C2\SC(=S)N(C)C2=O)c(C)n1-c1cccc(O)c1,inconclusive: 82.2%
2,Cc1ccc(-c2n[nH]c3c2C(c2ccccc2)N(c2ccc(C(=O)O)cc2)C3=O)cc1 (centres undefined),inconclusive: 93.5%
3,CCC(C)NS(=O)(=O)c1ccc(OCC(=O)Nc2ccc3c(c2)OCO3)cc1 (centres undefined),inactive: 94.2%
4,Cc1ccc(S(=O)(=O)N2CC3CCCC2C3)cc1 (centres undefined),inconclusive: 78.9%
5,NCC(=O)Nc1ccc(Cl)cc1C(=O)c1ccc[nH]1,inconclusive: 91.4%
6,Clc1c(Cl)c(Cl)c2n[nH]nc2c1Cl,inconclusive: -222%
7,O=C(Cn1nc2ccccc2n1)N/N=C/c1ccc(F)cc1,inconclusive: 92.2%
8,CC1(C(=O)O)COC(c2ccc(Cl)cc2)OC1 (centres undefined),inconclusive: 108%
9,N#C/C(=N\Nc1ccc(S(=O)(=O)N2CCc3ccccc32)cc1)C(N)=S,inconclusive: 95.3%
10,CN1CCN(C(=O)c2ccc(-n3cccn3)nc2)CC1,inactive: 99.4%
11,Cc1ccc(Nc2nc(N)nc(CCl)n2)cc1,inconclusive: 128%
12,O=C(c1ccco1)N(Cc1ccc2c(c1)OCO2)Cc1cc2cc3c(cc2[nH]c1=O)OCO3,inconclusive: 106%
13,O=C(NCCSc1ccccc1)c1cncc(Br)c1,inactive: 123%
14,O=C(OCc1ccc(COC(=O)c2cccnc2Cl)cc1)c1cccnc1Cl,inconclusive: 115%
15,CC(C)Cc1ccc(C(C)C(=O)Nc2ccccc2O)cc1 (centres undefined),inconclusive: 135%
16,CCOC(=O)c1sc(NC(=O)CSc2nnc(Cc3ccccc3)o2)c(C#N)c1C,inactive: 135%
17,CNC(=O)c1cc2cc(Cc3ccccc3Cl)ccc2oc1=O,inconclusive: 88.9%
18,Cc1cccc2cc(COC(=O)c3cccc([N+](=O)[O-])c3)c(=O)[nH]c12,inconclusive: 108%
19,Cc1c(C(=O)NN2CCOCC2)oc2ccccc12,inconclusive: 98.5%
20,COC(=O)c1cc(S(=O)(=O)Nc2cc(S(=O)(=O)N(C)C)ccc2C)oc1C,inconclusive: 106%

# Copied from the entries so far, 23 compounds:
row,SMILES,binding response (% of control)
14,Cc1ccc(N2C(=O)N(C(C)C)C(C)(C)CC2(C)O)cc1 (centres undefined),inconclusive: 95.6%
15,CC(c1ccc(F)cc1)n1c(-c2cccs2)n[nH]c1=S (centres undefined),inconclusive: 102%
16,CC(=O)Nc1cccc(-c2nnc(-c3ccccc3)o2)c1,inactive: 90.5%
17,Cc1nnsc1C(=O)NCc1c(F)cccc1Cl,inconclusive: 103%
18,COc1cc(/C=C2/C(=O)N(c3ccc([N+](=O)[O-])cc3)N=C2N2CCOCC2)ccc1O,inconclusive: -221%
19,Cc1cccc(OCC(=O)N/N=C/c2cccn2C)c1,inconclusive: 100%
20,Cc1ccc(-c2csc(NC(=O)CSc3nnc4c(n3)[nH]c3ccccc34)n2)cc1,inactive: 91.6%
21,CCN(CC)Cc1ccc(OC)c(Cl)c1,inconclusive: 88.3%
22,Cc1cc(C)c(C#N)c(SCc2c(F)cccc2[N+](=O)[O-])n1,inactive: 102%
23,NC(=O)CC(NC(=O)Cc1cccc2ccccc12)c1ccc(NC2CCCCC2)c([N+](=O)[O-])c1 (centres undefined),inconclusive: 115%
1,Cc1cc(/C=C2\SC(=S)N(C)C2=O)c(C)n1-c1cccc(O)c1,inconclusive: 82.2%
2,Cc1ccc(-c2n[nH]c3c2C(c2ccccc2)N(c2ccc(C(=O)O)cc2)C3=O)cc1 (centres undefined),inconclusive: 93.5%
3,CCC(C)NS(=O)(=O)c1ccc(OCC(=O)Nc2ccc3c(c2)OCO3)cc1 (centres undefined),inactive: 94.2%
4,Cc1ccc(S(=O)(=O)N2CC3CCCC2C3)cc1 (centres undefined),inconclusive: 78.9%
5,NCC(=O)Nc1ccc(Cl)cc1C(=O)c1ccc[nH]1,inconclusive: 91.4%
6,Clc1c(Cl)c(Cl)c2n[nH]nc2c1Cl,inconclusive: -222%
7,O=C(Cn1nc2ccccc2n1)N/N=C/c1ccc(F)cc1,inconclusive: 92.2%
8,CC1(C(=O)O)COC(c2ccc(Cl)cc2)OC1 (centres undefined),inconclusive: 108%
9,N#C/C(=N\Nc1ccc(S(=O)(=O)N2CCc3ccccc32)cc1)C(N)=S,inconclusive: 95.3%
10,CN1CCN(C(=O)c2ccc(-n3cccn3)nc2)CC1,inactive: 99.4%
11,Cc1ccc(Nc2nc(N)nc(CCl)n2)cc1,inconclusive: 128%
12,O=C(c1ccco1)N(Cc1ccc2c(c1)OCO2)Cc1cc2cc3c(cc2[nH]c1=O)OCO3,inconclusive: 106%
13,O=C(NCCSc1ccccc1)c1cncc(Br)c1,inactive: 123%
